± gives the uncertainty stated by the source. Many entries were measured with a wide error.
Assay: self-splicing fitness, log relative to wild type (ln ratio); higher = more splicing; Tetrahymena group I intron in knt gene, E. coli kanamycin selection, DiMSum; sequences stand for … in CUCUCU…GGAGGGAAAAGUUAUCAGGCAUGCACCUGGUAGCUAGUCUUUAAACCAAUAGAUUGCAUCGGUUUAAAAGGCAAGACCGUCAAAUUGCGGGAAAGGGGUCAACAGCCGUUCAGUACCAAGUCUCAGGGGAAACUUUGAGAUGGCCUUGCAAAGGGUAUGGUAAUAAGCUGACGGACAUGGUCCUAACCACGCAGCCAAGUCCUAAGUCAACAGAUCUUCUGUUGAUAUGGAUGCAGUUCACAGACUAAAUGUCGGUCGGGGAAGAUGUAUUCUUCUCAUAAGAUAUAGUCGGACCUCUCCUUAAUGGGAGCUAGCGGAUGAAGUGAUGCAACACUGGAGCCGCUGGGAACUAAUUUGUAUGCGAAAGUAUAUUGAUUAGUUUUGGAGUACUCGUGGUCG
Procedure, shortened: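 Fitness was computed with DiMSum as the error-weighted combination of replicate fold changes, kanamycin versus none, each normalised to wild type. The library randomised all eight intron nucleotides of the P1ex region, with the intron placed in the knt kanamycin-resistance gene on pET-22b(+) in E. coli BL21(DE3). Six replicate transformations were grown overnight at 37°C or 30°C on LB agar with or without 25 μg/mL kanamycin, plus 100 μg/mL carbenicillin, 50 μM IPTG and 0.2% rhamnose. Pooled colonies were amplicon-sequenced on an Illumina HiSeq 2500.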

Sequence | self-splicing fitness (ln) (30 °C) | self-splicing fitness (ln) (37 °C)
UUGGAGCAAUAUUACGACUC | -1.3 ± 0.57 | -2.39 ± 1.1
CCACAGCAAUAUUACGAGCC | -3.22 ± 0.42 | -2.3 ± 0.31
GACGAGCAAUAUUACGCCCG |  | -1.09 ± 0.92
AGGGAGCAAUAUUACGGAGU | -3.81 ± 0.59 | -2.28 ± 0.79
UUUUAGCAAUAUUACGCCUC | -2.35 ± 0.8 | 
UAGGAGCAAUAUUACGGUAC | -4.4 ± 1 | -3.31 ± 0.6
GGAGAGCAAUAUUACGGCGG | -4 ± 1 | -2.87 ± 0.61
GUAUAGCAAUAUUACGAAGC | -3.19 ± 0.54 | 
CUUGAGCAAUAUUACGGACC | -2.35 ± 0.51 | -2.13 ± 0.81
GCGUAGCAAUAUUACGCCCA |  | -0.74 ± 0.81
AGUCAGCAAUAUUACGCCGC | -2.6 ± 0.64 | -1.47 ± 0.87
CUCCAGCAAUAUUACGCUCC |  | -2.2 ± 1.1
GCGCAGCAAUAUUACGCGAU | -2.97 ± 0.53 | 
CUCCAGCAAUAUUACGGGCA | -4.15 ± 0.53 | 
CUGUAGCAAUAUUACGUUGC |  | -2.59 ± 0.77
AUGGAGCAAUAUUACGACUG |  | -3.19 ± 0.6
UCUAAGCAAUAUUACGCGCC | -4 ± 0.59 | 
AUGGAGCAAUAUUACGCUUC | -2.91 ± 0.75 | 
CUCAAGCAAUAUUACGGUGU | -3.3 ± 0.12 | -1.31 ± 0.13
AGCAAGCAAUAUUACGAUAC | -4.29 ± 1.1 | -1.72 ± 0.46
CGCGAGCAAUAUUACGGGGC |  | -2.09 ± 0.52
UCGGAGCAAUAUUACGUCAU | -3.34 ± 0.74 | 
ACAUAGCAAUAUUACGCAGC | -3.86 ± 0.72 | 
CUUUAGCAAUAUUACGAAAA | -3.44 ± 0.61 | 

Sequence | self-splicing fitness (ln) (30 °C) | self-splicing fitness (ln) (37 °C)
GGAGAGCAAUAUUACGGAUG | -4.33 ± 0.72 | 
UGAGAGCAAUAUUACGGGUA |  | -3.66 ± 0.52
UAAGAGCAAUAUUACGGGCU | -4.14 ± 0.72 | 
UUUGAGCAAUAUUACGGUCU | -3.28 ± 0.61 | 
UUGGAGCAAUAUUACGAGAC | -3.74 ± 0.62 | 
AUGGAGCAAUAUUACGAUAA |  | -3.4 ± 0.59
AUGGAGCAAUAUUACGAGCA | -2.33 ± 0.46 | -1.17 ± 0.49
CGGGAGCAAUAUUACGGUCC | -5.72 ± 0.71 | 
AUAAAGCAAUAUUACGAGGA | -3.28 ± 0.23 | -1.74 ± 0.19
AUGGAGCAAUAUUACGAGCC |  | -1.39 ± 1.2
UAGCAGCAAUAUUACGCGAU | -2.94 ± 0.2 | -3.07 ± 0.35
CAGUAGCAAUAUUACGCCCC |  | -0.879 ± 0.58
CUCAAGCAAUAUUACGAAUC | -4.37 ± 0.72 | 
UGAUAGCAAUAUUACGCGAC |  | -2.2 ± 0.78
CAAGAGCAAUAUUACGACCA | -3.9 ± 0.61 | -1.99 ± 0.66
ACUCAGCAAUAUUACGGAUU | -0.597 ± 0.055 | 0.0271 ± 0.076
UAUAAGCAAUAUUACGGCAU | -0.623 ± 0.077 | -0.223 ± 0.098
GUCAAGCAAUAUUACGUGGG | -3 ± 0.13 | -2.23 ± 0.2
GGGGAGCAAUAUUACGGGUC | -3.58 ± 0.76 | -3.29 ± 0.6
AUUAAGCAAUAUUACGUAUA | -1.48 ± 0.16 | -1.35 ± 0.14
CUGAAGCAAUAUUACGCCUC |  | -2.55 ± 0.63
CGUGAGCAAUAUUACGGGAC | -3.1 ± 0.54 | 
CCUAAGCAAUAUUACGCUAC | -3.77 ± 0.55 | -1.53 ± 0.31
UUCUAGCAAUAUUACGGUCC | -3.46 ± 1.1 | 

Sequence | self-splicing fitness (ln) (30 °C) | self-splicing fitness (ln) (37 °C)
CGAGAGCAAUAUUACGGAGC |  | -2.67 ± 0.54
CUAUAGCAAUAUUACGGCCA | -2.03 ± 0.66 | 
GAGGAGCAAUAUUACGAAUC |  | -0.826 ± 0.81
UUCCAGCAAUAUUACGAACU | -2.94 ± 0.54 | -2.37 ± 0.63
CAUUAGCAAUAUUACGUCAC | -4.63 ± 0.58 | 
GCACAGCAAUAUUACGAAUG | -1.89 ± 0.051 | -1.09 ± 0.063
UAUGAGCAAUAUUACGCUAC | -2.79 ± 0.2 | -2.25 ± 0.43
CGAGAGCAAUAUUACGAAGA |  | -2.67 ± 0.62
GACGAGCAAUAUUACGAAGC | -3.7 ± 0.59 | -2.9 ± 1.1
GGAUAGCAAUAUUACGGGGU | -4.47 ± 1 | -3.01 ± 0.35
UGGAAGCAAUAUUACGAAAG | -1.72 ± 0.16 | -0.893 ± 0.2
CUUUAGCAAUAUUACGAACU | -3.28 ± 0.24 | -2.54 ± 0.19
ACUGAGCAAUAUUACGUUUC | -3.19 ± 0.27 | -2.6 ± 0.23
GUCAAGCAAUAUUACGUUUG | -5.29 ± 0.59 | 
CCGAAGCAAUAUUACGCGAA | -3.2 ± 0.76 | 
UCACAGCAAUAUUACGCGCC | -3.06 ± 0.61 | -2.9 ± 0.61
CGCGAGCAAUAUUACGAGAA | -2.7 ± 0.76 | 
GAUGAGCAAUAUUACGGUGC | -4.57 ± 0.72 | 
UUUGAGCAAUAUUACGCGGC | -1.16 ± 0.56 | -0.278 ± 0.93
UAGGAGCAAUAUUACGGGGG | -3.71 ± 0.59 | 
UCUUAGCAAUAUUACGGAUG | -3.74 ± 0.28 | -1.76 ± 0.17
CGUGAGCAAUAUUACGAGCC | -2.18 ± 0.62 | 
CUUGAGCAAUAUUACGAGCC |  | -2.48 ± 0.77
CGGAAGCAAUAUUACGCAAA | -3.8 ± 1 | 

A run of entries of the results above, for reference:
Sequence | self-splicing fitness (ln) (30 °C) | self-splicing fitness (ln) (37 °C)
CGCGAGCAAUAUUACGAGAA | -2.7 ± 0.76 | 
GAUGAGCAAUAUUACGGUGC | -4.57 ± 0.72 | 
UUUGAGCAAUAUUACGCGGC | -1.16 ± 0.56 | -0.278 ± 0.93
UAGGAGCAAUAUUACGGGGG | -3.71 ± 0.59 | 

Full records from above.
CGAGAGCAAUAUUACGGAGC in the list: self-splicing fitness (ln) (37 °C): -2.67 ± 0.54
ACUGAGCAAUAUUACGUUUC in the list: self-splicing fitness (ln) (30 °C): -3.19 ± 0.27; self-splicing fitness (ln) (37 °C): -2.6 ± 0.23

Next records:

Sequence | self-splicing fitness (ln) (30 °C) | self-splicing fitness (ln) (37 °C)
GCGAAGCAAUAUUACGCCGC | 0.062 ± 1.1 | 
AGAGAGCAAUAUUACGGUUA | -3.1 ± 0.25 | -1.83 ± 0.21
GUAAAGCAAUAUUACGAGCG | -0.0732 ± 0.09 | 0.212 ± 0.12
AAAUAGCAAUAUUACGAAGA | -2.26 ± 0.26 | -1.1 ± 0.17
UAAUAGCAAUAUUACGGUUC |  | -2.69 ± 0.62
UGAGAGCAAUAUUACGAGGU | -4.2 ± 0.59 | -2.72 ± 0.54
AUCGAGCAAUAUUACGGUCC |  | -2.81 ± 0.74
CGUAAGCAAUAUUACGCAAA | -3.06 ± 0.81 | 
ACCGAGCAAUAUUACGAAAC | -3.03 ± 0.53 | 
CGCGAGCAAUAUUACGUGAC | -5.44 ± 0.58 | 
CCUGAGCAAUAUUACGAUUA | -3.35 ± 0.82 | 
AUUUAGCAAUAUUACGGUUG |  | -0.606 ± 0.58
UCGAAGCAAUAUUACGGCUC | -2.77 ± 0.56 | -1.93 ± 0.81
AAUGAGCAAUAUUACGACAC |  | -2.02 ± 0.66
CCCAAGCAAUAUUACGGGAG | -3.79 ± 0.13 | -2.29 ± 0.13
UGCUAGCAAUAUUACGGAGA | -3.88 ± 0.73 | 
CAUGAGCAAUAUUACGCGGG | -1.45 ± 0.14 | -2.46 ± 0.28
GGGGAGCAAUAUUACGGGCG | -1.52 ± 1.2 | -2.17 ± 0.8
ACUCAGCAAUAUUACGAUCC |  | -0.693 ± 0.5
AACUAGCAAUAUUACGGUCA | -0.313 ± 0.074 | 0.442 ± 0.093
CAAGAGCAAUAUUACGUCCA | -3.57 ± 1 | -1.78 ± 1.2
UAUAAGCAAUAUUACGCGCC |  | 0.417 ± 1.2
CCUCAGCAAUAUUACGCUGU | -2.84 ± 0.17 | -2.05 ± 0.25
GAUCAGCAAUAUUACGGCCA | 1.25 ± 1.1 | 0.685 ± 0.59

Sequence | self-splicing fitness (ln) (30 °C) | self-splicing fitness (ln) (37 °C)
GCCUAGCAAUAUUACGAGAA | -2.03 ± 0.67 | 
UAGGAGCAAUAUUACGACAG |  | -0.778 ± 1.4
CCGCAGCAAUAUUACGAUGU | -3.21 ± 0.14 | -2.83 ± 0.17
CGUAAGCAAUAUUACGGGAC | -2.9 ± 0.29 | -2.47 ± 0.41
UAUUAGCAAUAUUACGGAAC | -4.28 ± 0.73 | -2.58 ± 0.62
CUAAAGCAAUAUUACGAACC | -4.49 ± 1 | -0.845 ± 0.92
CGUUAGCAAUAUUACGCCCC | -2.79 ± 1.2 | 0.0743 ± 0.81
GGUGAGCAAUAUUACGUGCG | -0.62 ± 0.12 | -0.505 ± 0.18
GGUUAGCAAUAUUACGGGGG | -3.7 ± 1.1 | 
CGCUAGCAAUAUUACGGGUU | -2.73 ± 0.082 | -2.04 ± 0.11
GGAGAGCAAUAUUACGAUGG |  | -2.31 ± 1.1
AGGGAGCAAUAUUACGCCCC |  | 0.417 ± 1.2
UUAGAGCAAUAUUACGUACC | -3.13 ± 1 | 
CAUGAGCAAUAUUACGACCC | -2.21 ± 1.1 | 0.504 ± 1.2
UAAUAGCAAUAUUACGGACC | -3.27 ± 0.61 | 
AAAGAGCAAUAUUACGGGGA | -2.48 ± 0.35 | -1.81 ± 0.28
CAUGAGCAAUAUUACGUCCC |  | -2.03 ± 1.1
GUCCAGCAAUAUUACGGCAG | -4.98 ± 0.51 | 
CGUAAGCAAUAUUACGAGAC |  | -3.67 ± 1
AGCCAGCAAUAUUACGCCGG | -4.16 ± 0.73 | 
UAAGAGCAAUAUUACGGAUU | -3.88 ± 1.1 | 

From the supplement of paper PMC7877785
